Test results as given in patent publication US8476320B2, “Formulations for parenteral administration of amino-substituted (E)-2, 6-dialkoxystyryl 4-substituted benzylsulfones” (Onconova Therapeutics, Inc, priority 2007, dated 2013).
“And” between values parts separate entries of the source, which are not always exact repeats. Equal entries are not always repeated. At least one compound was matched to its structure with a doubt left.

Key:
[1] = Long term stability of 75 mg/mL ON 01910.Na in 100% PEG-400 (HPLC); assay type: physicochemical
Protocol: ON 01910.Na IV solution was manufactured at a concentration of 75 mg/mL in 100% PEG-400. The finished product consisted of 3 mL of drug product aseptically filled into
presterilized 5 mL vials. The manufacturing was in compliance with current Good Manufacturing Practices regulations.
Visual Inspection (a) The zero-time data point is the same as the release data generated from the manufactured clinical lot. Analytical Methods: (a) HPLC—Chromatography is performed using a Phenomenex Luna C-18 (2), 5 micron
(4.6 mm×250 mm, PN 00G-4252-E0) column at ambient conditions. The mobile phase used is 60%-0.1% trifluoroacetic acid in water; 40% acetonitrile. The flow rate is set at 2.0 ml/min Injection volume is 50 μL. Detection is accomplished by means of a UV/VIS detector at 230, 254, and 320 nm. Instrument control and data acquisition is facilitated using a Waters Millennium (V 2.15) software package. The external calibration is obtained using ON 01910.Na standard solutions prepared in 50:50 acetonitrile:water. This analytical method was validated.

[2] = Stability of 75 mg/ml formulation in 50% PEG 400 / 50% phosphate buffer pH 10.0; assay type: physicochemical
[3] = Long term stability of 25% PEG based formulation; assay type: physicochemical; conditions: LONGTERM 25% PEG (25° C. & 60% RH), 75 mg/ml
[4] = test system: mouse xenograft; assay: Mouse xenograft preclinical laboratory experiments; assay type: in vivo; conditions: 100% PEG-400 formulation
[5] = 75 mg/mL in 100% PEG-400, 5° C. Storage, Day 0
[6] = 75 mg/mL in 100% PEG-400, 5° C. Storage, Day 30
[7] = 75 mg/mL in 100% PEG-400, 5° C. Storage, Day 90
[8] = 75 mg/mL in 100% PEG-400, 5° C. Storage, Day 180, weighed samples
[9] = 75 mg/mL in 100% PEG-400, 5° C. Storage, Day 270, weighed samples
[10] = 75 mg/mL in 100% PEG-400, 5° C. Storage, Day 365, weighed samples
[11] = 75 mg/mL in 100% PEG-400, 25° C. Storage, Day 0
[12] = 75 mg/mL in 100% PEG-400, 25° C. Storage, Day 30
[13] = 75 mg/mL in 100% PEG-400, 25° C. Storage, Day 90
[14] = 75 mg/mL in 100% PEG-400, 25° C. Storage, Day 180, weighed samples
[15] = 75 mg/mL in 100% PEG-400, 25° C. Storage, Day 270, weighed samples
[16] = 75 mg/mL in 100% PEG-400, 25° C. Storage, Day 365, weighed samples
[17] = ACCELERATED 50% PEG (40° C. & 75% RH), 0 days
[18] = ACCELERATED 50% PEG (40° C. & 75% RH), 15 days
[19] = ACCELERATED 50% PEG (40° C. & 75% RH), 45 days
[20] = ACCELERATED 50% PEG (40° C. & 75% RH), 60 days
[21] = ACCELERATED 50% PEG (40° C. & 75% RH), 90 days
[22] = ACCELERATED 50% PEG (40° C. & 75% RH), 120 days
[23] = ACCELERATED 50% PEG (40° C. & 75% RH), 150 days
[24] = ACCELERATED 50% PEG (40° C. & 75% RH), 180 days
[25] = LONGTERM 50% PEG (25° C. & 60% RH), 0 days
[26] = LONGTERM 50% PEG (25° C. & 60% RH), 15 days
[27] = LONGTERM 50% PEG (25° C. & 60% RH), 45 days
[28] = LONGTERM 50% PEG (25° C. & 60% RH), 60 days
[29] = LONGTERM 50% PEG (25° C. & 60% RH), 90 days
[30] = LONGTERM 50% PEG (25° C. & 60% RH), 120 days
[31] = LONGTERM 50% PEG (25° C. & 60% RH), 150 days
[32] = LONGTERM 50% PEG (25° C. & 60% RH), 180 days
[33] = LONGTERM 50% PEG (25° C. & 60% RH), 270 days

With COc1cc(OC)c(/C=C/S(=O)(=O)Cc2ccc(OC)c(NCC(=O)[O-])c2)c(OC)c1.[Na+] [ON 01910.Na, (E)-2,4,6-trimethoxystyryl-3-carboxymethylamino-4-methoxybenzylsulfone] the Assay [1, 5] was 72.81 mg/mL and 78.26 mg/mL and 78.39 mg/mL, the “Average Assay [% RSD]” value [1, 5] was 76.49 [4.16] mg/mL and the Assay [1, 6] was 70.17 mg/mL and 75.86 mg/mL and 72.63 mg/mL. The “Average Assay [% RSD]” value [1, 6] was 72.88 [3.91] mg/mL, the Assay [1, 7] was 76.35 mg/mL and 69.57 mg/mL and 67.81 mg/mL and the “Average Assay [% RSD]” value [1, 7] was 71.24 [6.33] mg/mL. The Assay [1, 8] was 74.52 mg/mL and 75.94 mg/mL and 74.61 mg/mL, the “Average Assay [% RSD]” value [1, 8] was 75.02 [1.1] mg/mL and the Assay [1, 9] was 76.72 mg/mL and 77.12 mg/mL and 77.51 mg/mL. The “Average Assay [% RSD]” value [1, 9] was 77.12 [0.52] mg/mL, the Assay [1, 10] was 77.75 mg/mL and 79.53 mg/mL and 78.64 mg/mL and the “Average Assay [% RSD]” value [1, 10] was 78.64 (1.13) mg/mL. For the same molecule, the Assay [1, 11] was 72.81 mg/mL and 78.26 mg/mL and 78.39 mg/mL, the “Average Assay [% RSD]” value [1, 11] was 76.49 [4.16] mg/mL and the Assay [1, 12] was 77.77 mg/mL and 78.14 mg/mL and 78.92 mg/mL. For the same molecule, the “Average Assay [% RSD]” value [1, 12] was 78.28 [0.75] mg/mL, the Assay [1, 13] was 71.74 mg/mL and 70.20 mg/mL and 67.96 mg/mL and the “Average Assay [% RSD]” value [1, 13] was 69.97 [2.72] mg/mL. The Assay [1, 14] was 73.34 mg/mL and 70.40 mg/mL and 70.39 mg/mL, the “Average Assay [% RSD]” value [1, 14] was 71.38 [2.4] mg/mL and the Assay [1, 15] was 74.94 mg/mL and 74.12 mg/mL and 73.81 mg/mL. For the same molecule, the “Average Assay [% RSD]” value [1, 15] was 74.29 [0.79] mg/mL, the Assay [1, 16] was 77.88 mg/mL and 77.47 mg/mL and 77.34 mg/mL and the “Average Assay [% RSD]” value [1, 16] was 77.56 (0.36) mg/mL. For the same molecule, the Colour [2, 17] was “Yellow”, the pH [2, 17] was 10.68 and the Colour [2, 18] was “Yellow”. For the same molecule, the pH [2, 18] was 10.79, the Colour [2, 19] was “Yellow” and the pH [2, 19] was 10.14. The Colour [2, 20] was “Yellow”, the pH [2, 20] was 11.38 and the Colour [2, 21] was “Yellow”. For the same molecule, the pH [2, 21] was 10.7, the Colour [2, 22] was “Yellow” and the pH [2, 22] was 10.54. The Colour [2, 23] was “Yellow”, the pH [2, 23] was 10.45 and the Colour [2, 24] was “Yellow”. The pH [2, 24] was 10.53, the Colour [2, 25] was “Yellow” and the pH [2, 25] was 10.68. The Colour [2, 26] was “Yellow”, the pH [2, 26] was 10.65 and the Colour [2, 27] was “Yellow”. The pH [2, 27] was 10.39, the Colour [2, 28] was “Yellow” and the pH [2, 28] was 10.81. The Colour [2, 29] was “Yellow”, the pH [2, 29] was 10.84 and the Colour [2, 30] was “Yellow”. For the same molecule, the pH [2, 30] was 10.46, the Colour [2, 31] was “Yellow” and the pH [2, 31] was 11.03. For the same molecule, the Colour [2, 32] was “Yellow”, the pH [2, 32] was 10.95 and the Colour [2, 33] was “Yellow”. For the same molecule, the pH [2, 33] was 11.22, the Colour ([3]; 0 days) was “Yellow” and the pH ([3]; 0 days) was 10.97. For the same molecule, the Colour ([3]; 15 days) was “Yellow”, the pH ([3]; 15 days) was 9.88 and the Colour ([3]; 45 days) was “Yellow”. The pH ([3]; 45 days) was 9.8, the Colour ([3]; 60 days) was “Yellow” and the pH ([3]; 60 days) was 10.29. For the same molecule, the Colour ([3]; 90 days) was “Yellow”, the pH ([3]; 90 days) was 9.94 and the Colour ([3]; 120 days) was “Yellow”. For the same molecule, the pH ([3]; 120 days) was 10.27, the Colour ([3]; 150 days) was “Yellow” and the pH ([3]; 150 days) was 9.79. For the same molecule, the Colour ([3]; 180 days) was “Turbid Yellow”, the pH ([3]; 180 days) was 9.72 and the Colour ([3]; 270 days) was “Turbid Yellow”. The pH ([3]; 270 days) was 9.75 and the “efficacy of the formulation” value [4] was “has been observed”.
